This is an account of results in publication PMC12823551.

Chains of the proteins cited; added tags and fusions are not shown.
UniProt Q01094: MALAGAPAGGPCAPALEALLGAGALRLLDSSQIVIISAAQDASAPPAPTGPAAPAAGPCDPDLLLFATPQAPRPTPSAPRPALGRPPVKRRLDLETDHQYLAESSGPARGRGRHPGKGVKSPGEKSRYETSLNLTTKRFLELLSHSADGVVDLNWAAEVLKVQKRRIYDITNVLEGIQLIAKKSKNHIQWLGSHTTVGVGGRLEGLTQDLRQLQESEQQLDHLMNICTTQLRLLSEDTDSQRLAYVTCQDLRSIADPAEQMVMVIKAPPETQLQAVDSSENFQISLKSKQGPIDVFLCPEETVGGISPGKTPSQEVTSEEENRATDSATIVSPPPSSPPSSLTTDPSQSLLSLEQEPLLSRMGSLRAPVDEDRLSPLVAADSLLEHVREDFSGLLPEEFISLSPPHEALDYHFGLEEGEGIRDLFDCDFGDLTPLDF
UniProt Q08999: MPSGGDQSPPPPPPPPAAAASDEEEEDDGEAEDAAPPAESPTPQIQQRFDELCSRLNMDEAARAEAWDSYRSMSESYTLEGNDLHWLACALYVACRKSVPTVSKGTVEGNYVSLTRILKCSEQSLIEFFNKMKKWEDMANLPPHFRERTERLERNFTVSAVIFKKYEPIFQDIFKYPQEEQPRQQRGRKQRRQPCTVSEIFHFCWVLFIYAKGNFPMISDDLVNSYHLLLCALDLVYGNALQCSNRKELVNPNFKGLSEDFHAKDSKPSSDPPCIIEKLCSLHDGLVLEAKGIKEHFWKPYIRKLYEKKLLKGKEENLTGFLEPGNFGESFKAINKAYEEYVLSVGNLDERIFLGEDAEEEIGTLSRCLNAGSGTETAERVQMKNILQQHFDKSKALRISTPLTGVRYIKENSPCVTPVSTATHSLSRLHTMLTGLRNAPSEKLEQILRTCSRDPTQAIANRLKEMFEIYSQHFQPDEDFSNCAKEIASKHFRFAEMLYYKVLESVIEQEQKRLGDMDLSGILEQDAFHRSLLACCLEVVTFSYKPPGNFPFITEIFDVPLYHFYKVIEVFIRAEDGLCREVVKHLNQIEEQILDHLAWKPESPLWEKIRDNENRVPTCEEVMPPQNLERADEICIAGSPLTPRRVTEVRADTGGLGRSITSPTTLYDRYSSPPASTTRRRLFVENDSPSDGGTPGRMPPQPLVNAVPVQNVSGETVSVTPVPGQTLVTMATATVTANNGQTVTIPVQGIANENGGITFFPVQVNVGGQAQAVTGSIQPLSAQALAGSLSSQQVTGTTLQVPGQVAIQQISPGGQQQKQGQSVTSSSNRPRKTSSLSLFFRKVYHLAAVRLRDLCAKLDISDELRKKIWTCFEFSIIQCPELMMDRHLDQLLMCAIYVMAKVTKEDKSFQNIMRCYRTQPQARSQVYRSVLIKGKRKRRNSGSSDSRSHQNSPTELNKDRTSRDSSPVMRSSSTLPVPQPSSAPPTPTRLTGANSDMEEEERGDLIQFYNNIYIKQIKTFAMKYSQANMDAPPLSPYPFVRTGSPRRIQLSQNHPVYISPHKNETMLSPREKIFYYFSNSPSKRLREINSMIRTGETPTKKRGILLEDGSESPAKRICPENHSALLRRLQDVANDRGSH

For this test, the target named is E2F1 (human (endogenous in hPSC-derived neuroectoderm cells)) (UniProt Q01094). Kind of test: co-IP; neuroectoderm cells; nuclear and chromatin (Benzonase) extracts in Nuclear Lysis Buffer with 0.3% Triton X-100; 5 ug cross-linked antibodies, 12 h at 4 C; five washes; western blot; alternatively the nuclear complex co-IP kit (Active Motif).

Results are given in words; binding and its absence hold for the method and conditions named. In cells and extracts the contact can be indirect. Some results given as binding are weak or reduced against the parent protein; the word gives no strength.

As for RBL2/p130 (from UniProt Q08999 1-1139), the binding result is on record as “binds weakly”.
